Experimental findings from the supplement of paper PMC10727501 are described below.

The other results are listed elsewhere or left out. Repeats in this data set agree poorly, so a single value says little.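 Free-swimming zebrafish larvae were scored for O-bend response probability to dark flashes (naive: first five; training: remaining flashes of four 60-flash blocks; test: later 60-flash block) and for turning toward alternating leftward/rightward LED motion (OMR). Six treated larvae were compared with sixty 0.1% DMSO controls; |SSMD|≥2 defined a hit.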

Common to all, as to conditions: 10 µM; pre-incubation: 30-90 min
Assay [1] concerns Danio rerio larvae (5 dpf, TLF). In words: OMR-Perf (SSMD vs DMSO vehicle); higher = higher than vehicle (e.g. higher dark-flash O-bend response probability, or better optomotor performance).
The test system is the same in assay [2]. In words: Prob-Test (SSMD vs DMSO vehicle); higher = higher than vehicle (e.g. higher dark-flash O-bend response probability, or better optomotor performance).
For assay [3] the test system is unchanged. The assay is described as follows: Prob-Naive (SSMD vs DMSO vehicle); higher = higher than vehicle (e.g. higher dark-flash O-bend response probability, or better optomotor performance).
Assay [4] has the same test system. In words: Prob-Train (SSMD vs DMSO vehicle); higher = higher than vehicle (e.g. higher dark-flash O-bend response probability, or better optomotor performance).

The compound `C[C@H]1CCN(C(=O)CC#N)C[C@@H]1N(C)c1ncnc2[nH]ccc12` came in with an OMR-Perf in assay [1] of -0.349. The Prob-Test in assay [2] was determined as 0.0609. In assay [3], the Prob-Naive came to 0.538. Further, the Prob-Train in assay [4] is 0.117.

Turning to `Cc1n[nH]c2ccc(-c3cncc(OC[C@@H](N)Cc4ccccc4)c3)cc12`, the OMR-Perf in assay [1] was 0.0731. For the same compound, in assay [2], the Prob-Test turned out to be 0.184. The compound also came in with a Prob-Naive in assay [3] of -0.13. In addition, the Prob-Train in assay [4] was -0.436.

Regarding `CC1(COc2ccc3c(c2)ncn3-c2ccc3cccc(N4CCC(N)CC4)c3n2)COC1`, in assay [1], the OMR-Perf was -0.0927. The Prob-Test in assay [2] is 0.137. Moreover, the Prob-Naive in assay [3] was determined as 0.148. For the same compound, the Prob-Train in assay [4] was -0.141.

Turning to `CN(C)CCN(Cc1ccccc1)c1ccccn1.Cl` [Tripelennamine HCl], in assay [1], the OMR-Perf was 0.297. In addition, the Prob-Test in assay [2] turned out to be 0.162. The Prob-Naive in assay [3] was found to be 0.389. This compound gave a Prob-Train in assay [4] of 0.0986.

Compound `CCCCC(F)(F)C(=O)CC[C@H]1[C@H](O)CC(=O)[C@H]1CCCCCCC(=O)O` [Lubiprostone] registered an OMR-Perf in assay [1] of -0.55. Also, the Prob-Test in assay [2] was -1.28. The Prob-Naive in assay [3] was -2.74. In assay [4], this compound registered a Prob-Train of -2.78.

Consider `NS(=O)(=O)c1cc(Cl)c(Cl)c(S(N)(=O)=O)c1` [Dichlorphenamide], for which, in assay [1], the OMR-Perf was -0.674. Besides, the Prob-Test in assay [2] is -0.0652. The compound further displayed a Prob-Naive in assay [3] of -0.0225. This compound registered a Prob-Train in assay [4] of 0.309.

For the compound `C=C1C(=O)[C@]23C(CC[C@@H]1[C@H]2O)[C@]12CO[C@]3(O)[C@H](O)[C@@H]1C(C)(C)CC[C@@H]2O` (some centres undefined) [Oridonin], the OMR-Perf in assay [1] was 0.188. Also, the Prob-Test in assay [2] is -0.932. The compound further showed a Prob-Naive in assay [3] of -0.0728. In assay [4], this compound showed a Prob-Train of -0.811.

Consider `C[C@H]1O[C@@H](n2cc(F)c(=O)[nH]c2=O)[C@@H](O)[C@@H]1O` [Doxifluridine], for which the OMR-Perf in assay [1] was -0.39. In assay [2], this compound registered a Prob-Test of 0.0974. The same compound returned a Prob-Naive in assay [3] of -0.0225. The compound also returned a Prob-Train in assay [4] of 0.0779.

In the case of `O=C1c2ccccc2C(=O)c2c1ccc(O)c2O` [Alizarin], in assay [1], the OMR-Perf is -0.096. Moreover, the Prob-Test in assay [2] was -0.493. This compound also came in with a Prob-Naive in assay [3] of -0.443. The same compound registered a Prob-Train in assay [4] of -1.33.

As for `C[C@@H]1O[C@@H](O[C@@H]2[C@H](Oc3cc(O)c4c(c3)O[C@H](c3ccc(O)cc3)CC4=O)O[C@H](CO)[C@@H](O)[C@@H]2O)[C@@H](O)[C@H](O)[C@H]1O` [Naringin], in assay [1], the OMR-Perf was -0.629. Also, the Prob-Test in assay [2] came out at 0.0565. The Prob-Naive in assay [3] was 0.208. Moreover, the Prob-Train in assay [4] is -0.392.

Compound `COc1ccccc1Oc1c(NS(=O)(=O)c2ccc(C(C)(C)C)cc2)nc(-c2ncccn2)nc1OCCO.O` [Bosentan Hydrate] gave an OMR-Perf in assay [1] of 0.217. For the same compound, in assay [2], the Prob-Test was 0.23. In assay [3], this compound displayed a Prob-Naive of 0.389. In addition, the Prob-Train in assay [4] was found to be 0.12.

Regarding `O=C(O)/C=C/c1ccc(O)c(O)c1` [Caffeic Acid], the OMR-Perf in assay [1] was -0.491. In addition, the Prob-Test in assay [2] was found to be 0.00575. In addition, the Prob-Naive in assay [3] was 0.375. The compound further yielded a Prob-Train in assay [4] of -0.0802.

In assay [1], `COc1ccc(C(=O)Nc2sc3c(c2C(N)=O)CCCC3)cc1OC` registered an OMR-Perf of 0.0577. Moreover, the Prob-Test in assay [2] is -0.458. This compound displayed a Prob-Naive in assay [3] of -0.499. The same compound gave a Prob-Train in assay [4] of -1.08.

`NC1CCN(c2c(F)cc3c(=O)c(C(=O)O)cn(C4CC4)c3c2Cl)C1` (centres undefined) came in with an OMR-Perf in assay [1] of 0.205. In assay [2], this compound had a Prob-Test of -0.289. The compound further yielded a Prob-Naive in assay [3] of -0.0927. The compound also returned a Prob-Train in assay [4] of -0.114.

As for `COc1cc2c(cc1-c1c(C)noc1C)ncc1[nH]c(=O)n([C@H](C)c3ccccn3)c12`, the OMR-Perf in assay [1] came out at 0.212. In assay [2], this compound displayed a Prob-Test of 0.297. In assay [3], this compound came in with a Prob-Naive of 0.587. The compound also had a Prob-Train in assay [4] of 0.135.

On to `CCCCC[C@H](O)/C=C/[C@H]1[C@H](CCCCCCC(=O)O)C(=O)C[C@@H]1O` [Alprostadil], for which the OMR-Perf in assay [1] is -0.545. This compound also displayed a Prob-Test in assay [2] of -1.72. For the same compound, in assay [3], the Prob-Naive is -0.766. This compound also displayed a Prob-Train in assay [4] of -2.05.

In assay [1], `CNC(=O)[C@@H](Cc1ccccc1)NC(=O)[C@@H](CC(C)C)[C@H](CSc1cccs1)C(=O)NO` [Batimastat (BB-94)] displayed an OMR-Perf of -0.485. The compound further came in with a Prob-Test in assay [2] of -0.0769. In addition, in assay [3], the Prob-Naive was determined as 0.292. The compound also gave a Prob-Train in assay [4] of -0.102.

Turning to `COc1ccc2[nH]cc(CCNC(C)=O)c2c1` [Melatonin], in assay [1], the OMR-Perf was -0.324. Moreover, the Prob-Test in assay [2] was -0.848. This compound also displayed a Prob-Naive in assay [3] of -0.73. For the same compound, the Prob-Train in assay [4] is -2.42.

`COc1cc(NC(C)CCCN)c2ncccc2c1.O=P(O)(O)O.O=P(O)(O)O` (centres undefined) [Primaquine Diphosphate] registered an OMR-Perf in assay [1] of -0.17. Besides, the Prob-Test in assay [2] is 0.0584. This compound also showed a Prob-Naive in assay [3] of 0.338. In assay [4], this compound came in with a Prob-Train of -0.457.

The compound `CN1CCC(CNc2ccc3ncc(-c4cccc(OC(F)(F)F)c4)n3n2)CC1` [SGI-1776 free base] had an OMR-Perf in assay [1] of -0.00186. The compound further gave a Prob-Test in assay [2] of 0.485. The Prob-Naive in assay [3] came out at 0.102. In assay [4], this compound returned a Prob-Train of 0.201.

Regarding `CN1CCN(C2=Nc3cc(Cl)ccc3Nc3ccccc32)CC1` [Clozapine], the OMR-Perf in assay [1] was -0.793. For the same compound, in assay [2], the Prob-Test is -0.889. In assay [3], this compound showed a Prob-Naive of -0.105. For the same compound, in assay [4], the Prob-Train is -0.798.

For `Nc1ccc(-c2ccc3ncc4ccc(=O)n(-c5cccc(C(F)(F)F)c5)c4c3c2)cn1` [Torin 2], the OMR-Perf in assay [1] is -0.627. Further, the Prob-Test in assay [2] was -0.414. The compound further registered a Prob-Naive in assay [3] of 0.0457. In assay [4], this compound returned a Prob-Train of 0.0422.

In assay [1], `N#Cc1c(O)c2c(-c3ccc(-c4ccccc4O)cc3)csc2[nH]c1=O` gave an OMR-Perf of -0.638. Besides, the Prob-Test in assay [2] is 0.102. The Prob-Naive in assay [3] was -0.283. Further, in assay [4], the Prob-Train worked out at 0.417.

The compound `O=C([O-])C[C@H](O)C[C@H](O)C=Cc1c(C2CC2)nc2ccccc2c1-c1ccc(F)cc1.O=C([O-])C[C@H](O)C[C@H](O)C=Cc1c(C2CC2)nc2ccccc2c1-c1ccc(F)cc1.[Ca+2]` [Pitavastatin Calcium] registered an OMR-Perf in assay [1] of -0.195. The compound further displayed a Prob-Test in assay [2] of -1.24. The compound also returned a Prob-Naive in assay [3] of -0.0365. Also, in assay [4], the Prob-Train was -0.807.

The compound `O=S(=O)([O-])CCS.[Na+]` [Mesna] displayed an OMR-Perf in assay [1] of -0.00985. Moreover, the Prob-Test in assay [2] is -0.506. The Prob-Naive in assay [3] was determined as 0.454. Besides, the Prob-Train in assay [4] is -0.256.

The compound `O=C1N=C([O-])NC1(c1ccccc1)c1ccccc1.[Na+]` [Phenytoin sodium] came in with an OMR-Perf in assay [1] of -0.625. The compound further yielded a Prob-Test in assay [2] of 0.591. Also, the Prob-Naive in assay [3] was -0.435. The Prob-Train in assay [4] is 0.435.
